Reference: US20240358735A1, “THERAPEUTIC COMPOSITIONS AND RELATED METHODS” (BOYCE THOMPSON INSTITUTE FOR PLANT RESEARCH, INC., priority 2021, published 2024)

Test system: Cel-cest-1.2 mutants
Test: Comparative metabolomics (HPLC-HRMS) of Cel-cest-1.2 mutants versus wildtype C. elegans (N2)
Details: abundance of the metabolite in Cel-cest-1.2 mutants compared to C. elegans wildtype (N2)

SMILES | Cel-cest-1.2 fold over WT (N2), average of 4 repeats
O=C(O[C@H]1[C@H](OC(=O)c2ccc[nH]2)O[C@H](CO)[C@@H](O)[C@@H]1OP(=O)(O)O)c1ccccc1 [pyglu#201] | 0.001844
CCCC(O)CC(=O)CC(=O)OC[C@H]1O[C@@H](Oc2ccc(CCN)cc2)[C@H](OC(=O)c2ccccc2N)[C@@H](OP(=O)(O)O)[C@@H]1O (stereo partly drawn) [tyglu#45] | 0.01914
CCCCCCCCCCCC(=O)OC[C@H]1O[C@@H](OC(=O)c2ccccc2N)[C@H](OC(=O)c2ccccc2N)[C@@H](OP(=O)(O)O)[C@@H]1O [angl#40] | 0.004743
O=C(OC[C@H]1O[C@@H](n2ccc3ccccc32)[C@H](OC(=O)c2cccnc2)[C@@H](OP(=O)(O)O)[C@@H]1O)c1ccccc1 [iglu#54] | 0.0003206
Nc1ccccc1C(=O)O[C@@H]1O[C@H](COC(=O)c2ccccc2)[C@@H](O)[C@H](OP(=O)(O)O)[C@H]1OC(=O)c1ccccc1N [angl#32] | 0.0004297
O=C(C[C@@H]1O[C@H](COC(=O)c2cccnc2)[C@@H](O)[C@H](OP(=O)(O)O)[C@H]1OC(=O)c1cccnc1)c1ccccc1 [bzglu#6] | 0.01305
C[C@H](CC/C=C/C(=O)OC[C@H]1O[C@@H](n2ccc3ccccc32)[C@H](OC(=O)c2ccccc2)[C@@H](OP(=O)(O)O)[C@@H]1O)O[C@@H]1O[C@@H](C)[C@H](O)C[C@H]1O [iglas#701] | 0.0003478
C/C=C(\C)C(=O)O[C@@H]1[C@@H](OP(=O)(O)O)[C@H](O)[C@@H](COC(=O)c2ccccc2N)O[C@H]1n1ccc2ccccc21 [iglu#42] | 0.001624
O=C(OC[C@H]1O[C@@H](n2ccc3ccccc32)[C@H](OC(=O)c2ccc[nH]2)[C@@H](OP(=O)(O)O)[C@@H]1O)c1ccc[nH]1 [iglu#27] | 0.000146
O=C(O[C@@H]1[C@@H](OP(=O)(O)O)[C@H](O)[C@@H](CO)O[C@H]1n1ccc2ccccc21)c1ccc(O)cc1 [iglu#181] | 0.004916
Cn1c(N)nc2c(ncn2C2OC(COC(=O)c3ccccc3)C(O)C(OP(=O)(O)O)C2OC(=O)c2ccccc2)c1=O (stereo not drawn) [mgglu#6] | 0.000397
CCCC(=O)OC[C@H]1O[C@@H](n2ccc3ccccc32)[C@H](OC(=O)c2ccccc2N)[C@@H](OP(=O)(O)O)[C@@H]1O [iglu#84] | 0.001499
NCCc1ccc(O[C@@H]2O[C@H](COC(=O)c3ccccc3N)[C@@H](O)[C@H](OP(=O)(O)O)[C@H]2OC(=O)c2ccc(O)cc2)cc1 [tyglu#36] | 0.001657
NCC(O)c1ccc(C[C@@H]2O[C@H](COC(=O)c3cccnc3)[C@@H](O)[C@H](OP(=O)(O)O)[C@H]2OC(=O)c2ccccc2N)cc1 (stereo partly drawn) [oglu#16] | 0.0007457
NCCc1ccc(O[C@@H]2O[C@H](COC(=O)c3ccccc3N)[C@@H](O)[C@H](OP(=O)(O)O)[C@H]2O)cc1 [tyglu#2] | 0.0003551
Nc1ccccc1C(=O)OC[C@H]1O[C@@H](n2ccc3ccccc32)[C@H](OC(=O)c2ccc[nH]2)[C@@H](OP(=O)(O)O)[C@@H]1O [iglu#57] | 0.0002419
O=C(/C=C/c1c[nH]cn1)OCC1OC(n2ccc3ccccc32)C(OC(=O)c2ccc[nH]2)C(OP(=O)(O)O)C1O (stereo not drawn) [iglu#62] | 0.001818
NCCc1ccc(O[C@@H]2O[C@H](CO)[C@@H](O)[C@H](OP(=O)(O)O)[C@H]2OC(=O)c2ccc[nH]2)cc1 [tyglu#181] | 0.001755
CC(C)CC(=O)OC1C(Oc2ccc(CCN)cc2)OC(COC(=O)c2ccc[nH]2)C(O)C1OP(=O)(O)O (stereo not drawn) [tyglu#22] | 0.003217
C/C=C(\C)C(=O)OCC1OC(OC(=O)c2cccnc2)C(OC(=O)c2cccnc2)C(OP(=O)(O)O)C1O (stereo not drawn) [nglu#6] | 0.0138
CCC(=O)OC1C(OP(=O)(O)O)C(O)C(COC(=O)c2cccnc2)OC1n1ccc2ccccc21 (stereo not drawn) [iglu#23] | 0.001825
O=C(OCC1OC(OC(=O)c2ccccc2)C(OC(=O)c2ccc[nH]2)C(OP(=O)(O)O)C1O)c1cccnc1 (stereo not drawn) [bzglu#12] | 0.007016
Nc1ccccc1C(=O)OCC1OC(n2ccc3ccccc32)C(OC(=O)c2ccccc2)C(OP(=O)(O)O)C1O (stereo not drawn) [iglu#66] | 0.0001206
Nc1ccccc1C(=O)O[C@@H]1O[C@H](COC(=O)c2cccnc2)[C@@H](O)[C@H](OP(=O)(O)O)[C@H]1OC(=O)c1ccc[nH]1 [angl#24] | 0.00003421
C[C@H](CC/C=C/C(=O)OC[C@H]1O[C@@H](Oc2ccc(CCN)cc2)[C@H](OC(=O)c2ccccc2N)[C@@H](OP(=O)(O)O)[C@@H]1O)O[C@@H]1O[C@@H](C)[C@H](O)C[C@H]1O [tyglas#7] | 0.0007089

SMILES | Cel-cest-1.2 fold over WT (N2), average of 4 repeats
C/C=C(\C)C(=O)OC[C@H]1O[C@@H](OC(=O)c2ccccc2N)[C@H](OC(=O)/C(C)=C/C)[C@@H](OP(=O)(O)O)[C@@H]1O [angl#26] | 0.01182
CCC(=O)OC[C@H]1O[C@@H](n2ccc3ccccc32)[C@H](OC(=O)c2ccccc2N)[C@@H](OP(=O)(O)O)[C@@H]1O [iglu#24] | 0.0007803
O=C(OC[C@H]1O[C@@H](n2ccc3ccccc32)[C@H](OC(=O)c2cccnc2)[C@@H](OP(=O)(O)O)[C@@H]1O)c1cccnc1 [iglu#56] | 0.009127
NCC(O)c1ccc(C[C@@H]2O[C@H](COC(=O)c3ccc(O)cc3)[C@@H](O)[C@H](OP(=O)(O)O)[C@H]2OC(=O)c2ccccc2N)cc1 (stereo partly drawn) [oglu#17] | 0.001505
NCC(O)c1ccc(O[C@@H]2O[C@H](COC(=O)c3ccc[nH]3)[C@@H](O)[C@H](OP(=O)(O)O)[C@H]2OC(=O)c2ccccc2)cc1 (stereo partly drawn) [oglu#9] | 0.0002913
C[C@H](CC(=O)OC[C@H]1O[C@@H](Oc2ccc(CCN)cc2)[C@H](OC(=O)c2ccccc2N)[C@@H](OP(=O)(O)O)[C@@H]1O)O[C@@H]1O[C@@H](C)[C@H](O)C[C@H]1O [tyglas#11] | 0.005787
Nc1ccccc1C(=O)OC[C@H]1O[C@@H](OC(=O)c2ccccc2N)[C@H](OC(=O)Cc2ccccc2)[C@@H](OP(=O)(O)O)[C@@H]1O [angl#56] | 0.01078
Nc1ccccc1C(=O)O[C@@H]1O[C@H](COC(=O)C(N)Cc2ccccc2)[C@@H](O)[C@H](OP(=O)(O)O)[C@H]1OC(=O)c1ccccc1 (stereo partly drawn) [angl#38] | 0.000919
O=C(OC[C@H]1O[C@@H](n2ccc3ccccc32)[C@H](OC(=O)c2ccc[nH]2)[C@@H](OP(=O)(O)O)[C@@H]1O)c1ccc(O)cc1 [iglu#60] | 0.0003972
CC(C)CC(=O)OC[C@H]1O[C@@H](n2ccc3ccccc32)[C@H](OC(=O)/C=C/c2cnc[nH]2)[C@@H](OP(=O)(O)O)[C@@H]1O [iglu#46] | 0.0008888
C/C=C(\C)C(=O)OCC1OC(OC(=O)c2cccnc2)C(OC(=O)c2ccccc2)C(OP(=O)(O)O)C1O (stereo not drawn) [nglu#4] | 0.001611
Cn1c(N)nc2c(ncn2C2OC(COC(=O)c3ccccc3)C(O)C(OP(=O)(O)O)C2OC(=O)c2ccccc2)c1=O (stereo not drawn) [mgglu#4] | 0.004434
O=C(OCC1OC(OC(=O)c2ccccc2)C(OC(=O)c2ccc[nH]2)C(OP(=O)(O)O)C1O)c1cccnc1 (stereo not drawn) [bzglu#13] | 0.003747
NCCc1ccc(O[C@@H]2O[C@H](COC(=O)c3ccc[nH]3)[C@@H](O)[C@H](OP(=O)(O)O)[C@H]2OC(=O)c2ccccc2N)cc1 [tyglu#34] | 0.0003271
C[C@H](CCCCC(=O)OC[C@H]1O[C@@H](n2ccc3ccccc32)[C@H](OC(=O)c2ccccc2)[C@@H](OP(=O)(O)O)[C@@H]1O)O[C@@H]1O[C@@H](C)[C@H](O)C[C@H]1O [iglas#101] | 0.0007881
CC(C)CC(=O)OC[C@H]1O[C@@H](CC(=O)c2ccccc2)[C@H](OC(=O)CC(C)C)[C@@H](OP(=O)(O)O)[C@@H]1O [bzglu#8] | 0.0006248
C/C=C(\C)C(=O)O[C@@H]1[C@@H](CP(=O)(O)O)[C@H](O)[C@@H](CO)O[C@H]1n1ccc2ccccc21 [iglu#801] | 0.0007176
C/C=C(\C)C(=O)O[C@H]1[C@H](OC(=O)c2ccccc2N)O[C@H](CO)[C@@H](O)[C@@H]1OP(=O)(O)O [angl#601] | 0.009854
O=C(OC[C@H]1O[C@@H](n2ccc3ccccc32)[C@H](OC(=O)c2ccccc2)[C@@H](OP(=O)(O)O)[C@@H]1O)c1ccccc1 [iglu#50] | 0.00005754
NCCc1ccc(O[C@@H]2O[C@H](COC(=O)c3ccccc3N)[C@@H](O)[C@H](OP(=O)(O)O)[C@H]2OC(=O)c2ccccn2)cc1 [tyglu#6] | 0.000209
NCC(O)c1ccc(O[C@@H]2O[C@H](COC(=O)c3ccc[nH]3)[C@@H](O)[C@H](OP(=O)(O)O)[C@H]2OC(=O)c2ccccc2)cc1 (stereo partly drawn) [oglu#7] | 0.001472
NCCc1ccc(OC2OC(COC(=O)c3ccc[nH]3)C(O)C(OP(=O)(O)O)C2OC(=O)c2ccc[nH]2)cc1 (stereo not drawn) [tyglu#24] | 0.01672
C/C=C(\C)C(=O)OCC1OC(OC(=O)c2cccnc2)C(OC(=O)c2cccnc2)C(OP(=O)(O)O)C1O (stereo not drawn) [nglu#5] | 0.003987
C/C=C(\C)C(=O)OC[C@H]1O[C@@H](OC(=O)c2ccc[nH]2)[C@H](OC(=O)c2ccccc2)[C@@H](OP(=O)(O)O)[C@@H]1O [pyglu#4] | 0.007137

Same assay, conditions: relative to wildtype C. elegans

SMILES | production in the Cel-cest-1.2 mutant (in words)
C[C@H](CCCCC(=O)O[C@@H]1[C@@H](OP(=O)(O)O)[C@H](O)[C@@H](CO)O[C@H]1n1c(=O)[nH]c(=O)c2[nH]c(=O)[nH]c21)O[C@@H]1O[C@@H](C)[C@H](O)C[C@H]1O [uglas #11] | not affected
OC[C@H]1O[C@@H](n2ccc3ccccc32)[C@H](O)[C@@H](O)[C@@H]1O [iglu #1] | not abolished
